In PMC8262191:
Results are given in words; binding and its absence hold for the method and conditions named. Binding seen in cells or lysates may run through a third protein. Some entries that bind do so weakly or less than the wild type.

Protein sequences, listed by entry. Tags and fused reporters are not part of them.
UniProt Q15910: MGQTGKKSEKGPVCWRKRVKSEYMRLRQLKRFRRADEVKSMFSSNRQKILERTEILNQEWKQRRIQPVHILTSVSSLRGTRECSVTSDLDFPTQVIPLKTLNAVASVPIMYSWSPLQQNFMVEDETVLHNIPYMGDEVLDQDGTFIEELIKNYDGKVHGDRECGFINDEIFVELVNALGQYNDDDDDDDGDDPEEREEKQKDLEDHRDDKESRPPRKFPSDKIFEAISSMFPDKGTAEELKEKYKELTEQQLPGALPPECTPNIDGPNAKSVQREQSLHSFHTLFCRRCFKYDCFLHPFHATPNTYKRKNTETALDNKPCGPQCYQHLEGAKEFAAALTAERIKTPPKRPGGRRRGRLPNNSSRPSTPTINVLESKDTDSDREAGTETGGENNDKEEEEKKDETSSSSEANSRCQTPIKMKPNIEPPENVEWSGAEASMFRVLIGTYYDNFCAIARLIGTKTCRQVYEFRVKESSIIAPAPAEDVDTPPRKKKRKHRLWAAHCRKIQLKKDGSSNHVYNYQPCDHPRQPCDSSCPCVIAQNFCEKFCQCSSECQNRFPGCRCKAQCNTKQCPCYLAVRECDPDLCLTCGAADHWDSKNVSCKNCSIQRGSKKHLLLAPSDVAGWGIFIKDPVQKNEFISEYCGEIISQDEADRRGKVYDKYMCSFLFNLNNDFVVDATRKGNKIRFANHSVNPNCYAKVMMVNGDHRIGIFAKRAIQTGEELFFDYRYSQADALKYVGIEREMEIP

Molecular target: Enhancer of zeste homolog 2 (EZH2) (human (endogenous in Hep-2 and TU-177)) (UniProt Q15910)
Experiment: co-IP; proteins extracted from Hep-2 and TU-177 cells incubated with anti-EZH2 antibody (ab186006) and protein-A/G-agarose beads at 4°C overnight, washed four times with lysis buffer, Western blot

binding | Binder
binds | ZEB1 (protein, UniProt P37275 1-1124) MADGPRCKRRKQANPRRNNVTNYNTVVETNSDSDDEDKLHIVEEESVTDAADCEGVPEDDLPTDQTVLPGRSSEREGNAKNCWEDDRKEGQEILGPEAQADEAGCTVKDDECESDAENEQNHDPNVEEFLQQQDTAVIFPEAPEEDQRQGTPEASGHDENGTPDAFSQLLTCPYCDRGYKRFTSLKEHIKYRHEKNEDNFSCSLCSYTFAYRTQLERHMTSHKSGRDQRHVTQSGCNRKFKCTECGKAFKYKHHLKEHLRIHSGEKPYECPNCKKRFSHSGSYSSHISSKKCISLIPVNGRPRTGLKTSQCSSPSLSASPGSPTRPQIRQKIENKPLQEQLSVNQIKTEPVDYEFKPIVVASGINCSTPLQNGVFTGGGPLQATSSPQGMVQAVVLPTVGLVSPISINLSDIQNVLKVAVDGNVIRQVLENNQANLASKEQETINASPIQQGGHSVISAISLPLVDQDGTTKIIINYSLEQPSQLQVVPQNLKKENPVATNSCKSEKLPEDLTVKSEKDKSFEGGVNDSTCLLCDDCPGDINALPELKHYDLKQPTQPPPLPAAEAEKPESSVSSATGDGNLSPSQPPLKNLLSLLKAYYALNAQPSAEELSKIADSVNLPLDVVKKWFEKMQAGQISVQSSEPSSPEPGKVNIPAKNNDQPQSANANEPQDSTVNLQSPLKMTNSPVLPVGSTTNGSRSSTPSPSPLNLSSSRNTQGYLYTAEGAQEEPQVEPLDLSLPKQQGELLERSTITSVYQNSVYSVQEEPLNLSCAKKEPQKDSCVTDSEPVVNVIPPSANPINIAIPTVTAQLPTIVAIADQNSVPCLRALAANKQTILIPQVAYTYSTTVSPAVQEPPLKVIQPNGNQDERQDTSSEGVSNVEDQNDSDSTPPKKKMRKTENGMYACDLCDKIFQKSSSLLRHKYEHTGKRPHECGICKKAFKHKHHLIEHMRLHSGEKPYQCDKCGKRFSHSGSYSQHMNHRYSYCKREAEERDSTEQEEAGPEILSNEHVGARASPSQGDSDERESLTREEDEDSEKEEEEEDKEMEELQEEKECEKPQGDEEEEEEEEEVEEEEVEEAENEGEEAKTEGLMKDDRAESQASSLGQKVGESSEQVSEEKTNEA
binds weakly | CDKN1C (protein, UniProt P49918 1-316) MSDASLRSTSTMERLVARGTFPVLVRTSACRSLFGPVDHEELSRELQARLAELNAEDQNRWDYDFQQDMPLRGPGRLQWTEVDSDSVPAFYRETVQVGRCRLLLAPRPVAVAVAVSPPLEPAAESLDGLEEAPEQLPSVPVPAPASTPPPVPVLAPAPAPAPAPVAAPVAAPVAVAVLAPAPAPAPAPAPAPAPVAAPAPAPAPAPAPAPAPAPAPDAAPQESAEQGANQGQRGQEPLADQLHSGISGRPAAGTAAASANGAAIKKLSGPLISDFFAKRKRSAPEKSSGDVPAPCPSPSAAPGVGSVEQTPRKRLR
